Source: article PMC3551969
No constants are given. Whether binding was seen depends on the method and setting. Some results given as binding are weak or reduced against the parent protein; the word gives no strength.

The chains behind the UniProt entries cited, without tags or fusion partners. Where a name states a change or a piece, a line headed by the entry shows the natural chain unless it says otherwise. Residues count along the entry.
UniProt P68640: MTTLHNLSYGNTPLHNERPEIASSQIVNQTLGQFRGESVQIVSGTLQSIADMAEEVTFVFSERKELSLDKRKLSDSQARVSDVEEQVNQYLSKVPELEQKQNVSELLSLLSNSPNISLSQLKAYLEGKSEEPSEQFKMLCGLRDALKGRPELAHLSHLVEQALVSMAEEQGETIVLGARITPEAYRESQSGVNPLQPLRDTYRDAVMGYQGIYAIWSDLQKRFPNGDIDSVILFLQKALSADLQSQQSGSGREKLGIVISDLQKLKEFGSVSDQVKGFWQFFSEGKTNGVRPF
UniProt P69959: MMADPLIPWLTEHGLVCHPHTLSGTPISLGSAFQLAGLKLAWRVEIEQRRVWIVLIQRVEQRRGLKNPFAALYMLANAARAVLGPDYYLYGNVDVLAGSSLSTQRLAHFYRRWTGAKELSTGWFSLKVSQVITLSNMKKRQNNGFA
UniProt P69955: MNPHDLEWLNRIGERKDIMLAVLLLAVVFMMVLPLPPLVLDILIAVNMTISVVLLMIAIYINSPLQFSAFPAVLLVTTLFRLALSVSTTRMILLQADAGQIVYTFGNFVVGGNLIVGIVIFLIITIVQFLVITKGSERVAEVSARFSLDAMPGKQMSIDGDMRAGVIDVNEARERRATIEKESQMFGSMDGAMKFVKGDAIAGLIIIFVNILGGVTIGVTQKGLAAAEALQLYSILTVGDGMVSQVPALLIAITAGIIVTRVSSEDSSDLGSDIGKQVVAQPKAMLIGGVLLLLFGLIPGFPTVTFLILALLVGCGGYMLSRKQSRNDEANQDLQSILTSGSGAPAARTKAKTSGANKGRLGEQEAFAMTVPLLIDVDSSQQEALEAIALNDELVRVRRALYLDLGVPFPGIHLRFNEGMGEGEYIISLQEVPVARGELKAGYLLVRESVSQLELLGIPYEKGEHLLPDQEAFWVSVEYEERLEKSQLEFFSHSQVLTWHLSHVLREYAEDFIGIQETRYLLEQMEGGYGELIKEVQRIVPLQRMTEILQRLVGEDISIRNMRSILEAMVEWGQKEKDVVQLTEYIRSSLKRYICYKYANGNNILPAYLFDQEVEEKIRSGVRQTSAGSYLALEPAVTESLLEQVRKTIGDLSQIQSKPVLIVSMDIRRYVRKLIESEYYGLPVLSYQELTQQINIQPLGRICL
LcrD_((1–500)): residues 1-500 of P69955
LcrD_((207–705)): residues 207-704 of P69955
UniProt O68690: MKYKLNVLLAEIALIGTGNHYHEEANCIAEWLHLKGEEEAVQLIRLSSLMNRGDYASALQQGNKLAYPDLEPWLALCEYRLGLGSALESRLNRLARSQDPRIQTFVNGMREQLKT
UniProt P69968: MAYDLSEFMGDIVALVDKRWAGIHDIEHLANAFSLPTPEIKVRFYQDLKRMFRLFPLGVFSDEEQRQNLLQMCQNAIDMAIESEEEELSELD
UniProt P21207: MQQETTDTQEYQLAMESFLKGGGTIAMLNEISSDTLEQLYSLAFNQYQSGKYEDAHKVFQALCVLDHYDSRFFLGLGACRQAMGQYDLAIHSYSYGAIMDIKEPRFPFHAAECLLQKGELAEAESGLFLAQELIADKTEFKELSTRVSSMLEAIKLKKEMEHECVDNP
UniProt Q56973: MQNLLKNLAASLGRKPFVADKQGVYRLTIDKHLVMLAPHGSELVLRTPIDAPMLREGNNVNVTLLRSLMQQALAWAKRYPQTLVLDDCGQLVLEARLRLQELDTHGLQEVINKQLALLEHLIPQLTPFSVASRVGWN
UniProt O68693: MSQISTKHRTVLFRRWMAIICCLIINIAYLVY
UniProt P31493: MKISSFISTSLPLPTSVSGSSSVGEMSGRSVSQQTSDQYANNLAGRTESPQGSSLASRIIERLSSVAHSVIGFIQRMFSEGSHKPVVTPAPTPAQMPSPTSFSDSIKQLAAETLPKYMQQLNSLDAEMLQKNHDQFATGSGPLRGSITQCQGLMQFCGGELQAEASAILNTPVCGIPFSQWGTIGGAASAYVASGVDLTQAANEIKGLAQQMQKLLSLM
UniProt O68692: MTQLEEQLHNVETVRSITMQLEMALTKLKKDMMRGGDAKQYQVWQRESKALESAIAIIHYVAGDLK
UniProt P61380: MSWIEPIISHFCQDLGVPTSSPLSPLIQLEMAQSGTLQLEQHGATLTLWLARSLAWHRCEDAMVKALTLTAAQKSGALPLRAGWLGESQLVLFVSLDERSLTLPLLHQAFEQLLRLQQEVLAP

Key:
Assay in all cases: two-hybrid
YopN (Y. pestis) = YopN (Y. pestis) (UniProt P68640)
LcrR (Y. pestis) = LcrR (Y. pestis) (UniProt P69959)
[1] = target: LcrD_((207–705)) (Y. pestis) (UniProt P69955)
[2] = target: LcrD_((1–500)) (Y. pestis) (UniProt P69955)
YscG (Y. pestis) = YscG (Y. pestis) (UniProt O68690)
TyeA (Y. pestis) = TyeA (Y. pestis) (UniProt P69968)
SycD (Y. pestis) = SycD (Y. pestis) (UniProt P21207)
YscB (Y. pestis) = YscB (Y. pestis) (UniProt Q56973)

## YscB (from UniProt Q56973 1-137)
YopN (Y. pestis)
  binding: no binding

## YscA (from UniProt O68693 1-32)
LcrR (Y. pestis)
  binding: binds

## YopE (from UniProt P31493 1-219)
[1]
  binding: binds
[2]
  binding: no binding

## YscE (from UniProt O68692 1-66)
YscG (Y. pestis)
  binding: binds

## YopN (from UniProt P68640 1-293)
TyeA (Y. pestis)
  binding: binds

## YscG (from UniProt O68690 1-115)
TyeA (Y. pestis)
  binding: binds
SycD (Y. pestis)
  binding: binds

## SycN (from UniProt P61380 1-123)
YopN (Y. pestis)
  binding: no binding
YscB (Y. pestis)
  binding: binds
